For at least one entry, the source does not settle the construct or the ends of the probe. At least one verdict rests on a figure or table, not on a statement of the authors. Tags and fusion partners may be left off the protein sequences shown.
These sequences were tested against T1, 6His-WRKY40 (UniProt Q9SAH7) (assay: EMSA). Details: 50 ng His-WRKY40, 26 ng DIG-labelled fragment; competition with 5- to 20-fold molar excess of unlabelled fragment; buffer as in Shang et al. 2010 (not given); recombinant protein; protein details: 6xHis; label: digoxigenin-dUTP.
T1 sequence (looked up, limits assumed): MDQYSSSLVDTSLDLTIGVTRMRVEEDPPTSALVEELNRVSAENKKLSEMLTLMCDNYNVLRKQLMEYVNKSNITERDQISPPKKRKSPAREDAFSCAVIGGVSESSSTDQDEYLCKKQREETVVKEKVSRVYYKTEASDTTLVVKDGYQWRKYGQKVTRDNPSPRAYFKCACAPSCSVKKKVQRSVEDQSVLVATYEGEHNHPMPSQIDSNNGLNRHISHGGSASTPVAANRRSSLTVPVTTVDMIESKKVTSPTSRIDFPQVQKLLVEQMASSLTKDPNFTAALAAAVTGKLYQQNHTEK

Binding result, binds:
AAGTTTTAGTTATTGGGTTGTAGCAAAAATCATTCTTGTCACGAGGGTGTAAGTAAGTGTAACCGTTGAAGTATTCAGTGGCTCATAACTTGTGGTCACAAAACGCTTGGCTGCAATGAAAAAATCAAAACAAATGCTGGTGGACTAGAGATTGCCACGTAAGACTACTAAACGATAAAACAAAAATCTTAAAATCCAATGAATG (double strand) [pLHCB1-2 (p2)]
ATTCATTGCTGTCATTTACATTTCAATAAGAAAATAAATTAATTTCCACGTGTCATTTTATTTTCCTCTCACAATTTAGATTTAGATAAGTAAAGTATTAGAAAAATGTAAATACTGAGTTGGCAGAATAAGACAGTGGTGAGTGTGGGTGATGTGGATATGGTGAAGTAGTTTCTGACTCCTAATTGGTCAGAAATCTATC (double strand) [pLHCB6]
CATAACTTGTGGTCACAAAACGCTTGGCTGCAATGAAAAAATCAAAACAAATGCTGGTGGACTAGAGATTGCCACGTAAGACTACTAAACGATAAAACAAAAATCTTAAAATCCAATGAATGAACAGATAAAGATTACTTCAGATATAACAAACGTTACAATATCCCTATATAATCCAACACTATCGAACCAGTTTTAATCACTCTCACTCACAAGTTAGTCATAA (double strand) [pLHCB1-1 (p1)]
CTATTACAACCGTTTAATTGAACCATTGCAATATTTAGTTTATTTGACGAACCATTAAAATTATTGGTTTATTTTATGAACTCTTGTAATATTTTATATATAAATAGTAGCGATCTGACTAAATGACTTATACGTTTGGGTTTCTCAATTTTGTAACTGTGTTTGCATTGTAATGGCTCATGACCTAAGC (double strand) [pLHCB2-2 (p2)]
GATAAAGAGTAAAACGTCAAAGTTTTAAGGTGATATCACATAATTCATGAGATTATTTTGGTTATTGGATAAAGTGACGATGAAATCGATTCATAATTGAAATTAAACTGGTAGTGATGATGAACTAATTACCATTGAAAATATTGATATTTATGTGTGGGTAAATGCTTTTTATAATGTTAC (double strand) [pLHCB1-3 (p3)]
TCTCTACCATTATGTGACTCTTGTAAGAGCCATAGCCAAGGAAAATTACTTAAGTTAGGTAATGTTCTGTGAAATATATTTTTCCTCCTCTGTAAATAAAGTGTGTTTTTCTATTTACTTGCAGTTTGACTTCTTGATCTGGTAAGTGTTGGCTTTTAATATATGATTTAGTGTGACATAGCGAATCATGC (double strand) [pLHCB2-1 (p1)]
